# Source: US20060177519A1, “Chemotherapeutic agents for the control of plant and animal diseases” (priority 2004, published 2006)
# At least one compound was matched to its structure with a doubt left.
# Test system: bacterial spot
# Assay: Control of bacterial spot on peach, Ft. Valley, Ga. 2005
# Type: in vivo
# Conditions: O'Henry peach
compound,measurement,value
CN(C)[C@@H]1C(O)=C(C(N)=O)C(=O)[C@@]2(O)C(O)=C3C(=O)c4c(O)cccc4[C@@](C)(O)[C@H]3[C@H](O)[C@@H]12 [oxytetracycline],disease reductions compared with the untreated check,statistically significant disease reductions
